Assay results as given in patent US20260217768A1, “NANOPARTICLE-NHE3 PEPTIDE TO TREAT DIARRHEA” (The Johns Hopkins University, priority 2023, published 2026).

System: mouse jejunum
Settings: in vivo

For “NHE3 mimetic peptide, rabbit NHE3 aa 568-605: NVDFSTPRPSTVEASVSYLLRESASAVCLDMQSLEQRR [Peptide N3SP-1]”, the “localization of peptide in CTx-treated jejunum” value was “visible intracellular accumulation”.
In the case of “CP-1: 21 aa control peptide representing aa 585-605 of rabbit NHE3 (YLLRESASAVCLDMQSLEQRR; UniProt P26432 585-605, looked up, fragment)”, the “localization of peptide in CTx-treated jejunum” value is reported as “remained at the BB”.
